Structures can show the parent of a compound that is named as a salt. The list shows a part of the results. The calls rarely recur for the same compound in another form.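 In K562 cells expressing nanoluciferase-fused kinases, luminescence was recorded at 4 h intervals between 2 and 18 h, normalized as percent of control with DMSO at 100% and a positive control at 0%. A significant (2 sigma) signal drop marks a time point as decreased. The authors' rule for a hit is not shown and takes in more than the number of time points.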
target: RAF1 (UniProt P04049); experiment: kinase-Nluc reporter destabilization hit call (1 = scored as downregulated) (binary); higher = compound decreases kinase abundance; details: K562; 2-18 h

kinase-Nluc reporter destabilization hit call, inactive:
O=C(Nc1ccc(Cl)cc1)C1CN(C(=O)c2cccc(-c3ccco3)c2)CC(F)(F)C1 (stereo unspecified) (2.5 µM) 0, COc1ccc(CN2CCC(c3ccc4nc(C(=O)N5CCN(Cc6ccc(C(F)(F)F)cc6)CC5)[nH]c4c3)CC2)cn1 (2.5 µM) 0, CC(C)=CCC[C@](C)(O[C@@H]1O[C@H](CO[C@@H]2O[C@H](CO)[C@@H](O)[C@H](O)[C@H]2O)[C@@H](O)[C@H](O)[C@H]1O)[C@H]1CC[C@]2(C)[C@@H]1[C@H](O)C[C@@H]1[C@@]3(C)CC[C@H](O[C@@H]4O[C@H](CO)[C@@H](O)[C@H](O)[C@H]4O[C@@H]4O[C@H](CO)[C@@H](O)[C@H](O)[C@H]4O)C(C)(C)[C@@H]3CC[C@]12C [Ginsenoside Rb1] (10 µM) 0, COc1cc2ncnc(Nc3cc(Br)c(O)c(Br)c3)c2cc1OC (2.5 µM) 0, CO[C@]1(C(=O)N[C@@H](C)c2ccc(-n3cc(F)cn3)nc2)CC[C@H](c2nc(C)cc(Nc3cc(C)[nH]n3)n2)CC1 [Pralsetinib] (10 µM) 0, CCc1cc(Nc2nccc(-c3c(-c4ccc(OC)c(C(=O)Nc5c(F)cccc5F)c4)nc4ccccn34)n2)c(OC)cc1N1CCC(N2CCN(S(C)(=O)=O)CC2)CC1 (2.5 µM) 0, Cc1nc2c(NCc3cccc(S(C)(=O)=O)c3)nccn2c1-c1ccc(O)c(F)c1 (10 µM) 0, CNC(=O)CN1CCC(Oc2cc3c(Nc4cccc(Cl)c4F)ncnc3cc2OC)CC1 [Sapitinib] (10 µM) 0, COc1ccc(Br)c(C=O)c1O [6-Bromo-2-hydroxy-3-methoxybenzaldehyde] (10 µM) 0, N#C/C(=C/c1ccc(O)c(O)c1)C(=O)N1CCc2ccccc21 [Tyrphostin AG 528] (10 µM) 0, C[C@H](Nc1cc2c(-c3ccc4c(c3)OCO4)noc2cn1)c1ccccc1 (10 µM) 0, CC1(C)CN(C(=O)c2ccc(-c3cccc4nc(NC(=O)C5CC5)nn34)cc2)C1 [Solcitinib] (10 µM) 0, Cc1ccc(NC(=O)N2CCN(c3nc(N)nc4sc(-c5cccnc5)nc34)CC2)cc1 [PI4KIII beta inhibitor 3] (10 µM) 0, COc1ccc(Cl)cc1N(CC(=O)Nc1ccc2c(c1)OCO2)S(=O)(=O)c1ccccc1 (2.5 µM) 0, CN1CCN(c2ccc(-n3cc(-c4ccncc4OCC4CCNCC4)cn3)cc2)CC1 [MELK-8a (hydrochloride)] (10 µM) 0, CC1=CC(=O)C(C(C)C)=C/C1=N/OC(=O)c1ccccc1C [Poloxin] (2.5 µM) 0, O=C(O)/C=C(\CCc1ccc(Cl)cc1)c1ccccc1 (10 µM) 0, CCOC(=O)c1c(C)[nH]c(C=C2C(=O)Nc3ccccc32)c1C (10 µM) 0, O=C(NC[C@H](O)CO)c1ccncc1Nc1ccc(I)cc1F [Pimasertib] (10 µM) 0, O=[N+]([O-])c1ccc(-c2nc(-c3ccc(F)cc3)c(-c3ccncc3)[nH]2)cc1 (10 µM) 0, COc1ccc(CCNCc2ccc(OCc3ccc(Cl)nc3)c(OC)c2)cc1OC [SBE13 (Hydrochloride)] (10 µM) 0
